{
  "sequences": {"note": "Sequences of proteins named here, by UniProt entry; tags and fusion partners are left off. A change or cut given only in a name is not applied to a line headed by its entry.", "UniProt Q9Y6A4": "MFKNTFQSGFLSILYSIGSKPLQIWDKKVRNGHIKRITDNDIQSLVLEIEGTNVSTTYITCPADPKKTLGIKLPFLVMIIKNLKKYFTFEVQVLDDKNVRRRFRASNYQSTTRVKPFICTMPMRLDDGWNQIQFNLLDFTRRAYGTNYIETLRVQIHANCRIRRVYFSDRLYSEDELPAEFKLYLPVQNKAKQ", "UniProt Q9Y4R8, whole entry": "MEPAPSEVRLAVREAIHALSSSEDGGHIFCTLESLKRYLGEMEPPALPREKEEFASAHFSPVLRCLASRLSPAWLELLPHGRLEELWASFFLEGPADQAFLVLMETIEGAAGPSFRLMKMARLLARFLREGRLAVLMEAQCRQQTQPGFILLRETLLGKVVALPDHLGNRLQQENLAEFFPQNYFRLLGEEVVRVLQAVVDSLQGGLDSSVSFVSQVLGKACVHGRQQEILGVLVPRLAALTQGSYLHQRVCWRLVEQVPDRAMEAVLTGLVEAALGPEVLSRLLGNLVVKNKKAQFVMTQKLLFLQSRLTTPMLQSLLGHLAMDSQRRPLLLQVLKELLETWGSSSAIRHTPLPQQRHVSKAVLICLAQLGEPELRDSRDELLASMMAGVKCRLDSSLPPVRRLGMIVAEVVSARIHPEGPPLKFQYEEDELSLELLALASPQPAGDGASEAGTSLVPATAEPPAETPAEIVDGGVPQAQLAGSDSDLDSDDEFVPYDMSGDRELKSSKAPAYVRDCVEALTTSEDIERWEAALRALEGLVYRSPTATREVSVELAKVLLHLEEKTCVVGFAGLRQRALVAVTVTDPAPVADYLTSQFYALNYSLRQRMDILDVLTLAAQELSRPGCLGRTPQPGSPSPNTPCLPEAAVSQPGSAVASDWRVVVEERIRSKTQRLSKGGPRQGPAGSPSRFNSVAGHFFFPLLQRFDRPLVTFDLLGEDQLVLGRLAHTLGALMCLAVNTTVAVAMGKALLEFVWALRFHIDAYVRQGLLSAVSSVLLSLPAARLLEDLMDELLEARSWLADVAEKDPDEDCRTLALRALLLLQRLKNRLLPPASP", "UniProt Q9Y5Z4": "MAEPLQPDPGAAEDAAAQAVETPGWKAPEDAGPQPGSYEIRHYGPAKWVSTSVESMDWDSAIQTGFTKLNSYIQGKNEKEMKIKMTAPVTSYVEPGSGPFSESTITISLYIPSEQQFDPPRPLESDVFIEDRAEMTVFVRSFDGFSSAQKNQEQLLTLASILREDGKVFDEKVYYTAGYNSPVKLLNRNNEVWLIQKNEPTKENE", "UniProt Q9Y3D0": "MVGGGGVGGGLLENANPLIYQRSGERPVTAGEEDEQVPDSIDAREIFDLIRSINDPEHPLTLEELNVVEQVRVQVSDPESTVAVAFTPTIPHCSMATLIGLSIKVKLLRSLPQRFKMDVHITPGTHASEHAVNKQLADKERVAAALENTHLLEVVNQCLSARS", "UniProt Q9Y3L3": "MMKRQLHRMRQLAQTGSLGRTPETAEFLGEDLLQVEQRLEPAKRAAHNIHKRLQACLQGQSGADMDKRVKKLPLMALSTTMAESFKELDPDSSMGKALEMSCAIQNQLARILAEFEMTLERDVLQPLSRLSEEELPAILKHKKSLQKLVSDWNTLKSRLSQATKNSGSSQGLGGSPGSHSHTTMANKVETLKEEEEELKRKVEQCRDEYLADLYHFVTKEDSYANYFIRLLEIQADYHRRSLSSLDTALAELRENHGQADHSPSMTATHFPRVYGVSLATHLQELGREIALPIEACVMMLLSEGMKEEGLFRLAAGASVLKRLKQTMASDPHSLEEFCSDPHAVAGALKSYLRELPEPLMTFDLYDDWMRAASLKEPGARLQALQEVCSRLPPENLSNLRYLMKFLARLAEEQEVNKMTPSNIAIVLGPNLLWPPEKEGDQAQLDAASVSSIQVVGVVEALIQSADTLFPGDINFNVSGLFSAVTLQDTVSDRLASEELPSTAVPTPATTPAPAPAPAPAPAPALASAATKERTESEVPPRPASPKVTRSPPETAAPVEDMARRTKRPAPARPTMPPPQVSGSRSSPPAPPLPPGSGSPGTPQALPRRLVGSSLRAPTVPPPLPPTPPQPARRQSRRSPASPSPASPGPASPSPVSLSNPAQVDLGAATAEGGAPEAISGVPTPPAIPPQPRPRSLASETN"},
  "source": "the supplement of paper PMC6411743",
  "compound": "Nc1nc2c(ncn2[C@@H]2O[C@H](COP(=O)(O)OP(=O)(O)OP(=O)(O)O)[C@@H](O)[C@H]2O)c(=O)[nH]1 [guanosine triphosphate]",
  "assay": "NP40-soluble protein abundance relative to vehicle (solubility fold change) (ratio); higher = more soluble protein in presence of GTP",
  "description": "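Solubility proteome profiling in Jurkat crude lysate. Lysate was treated with Mg-GTP (0.1-10 mM) for 10 min at room temperature and 3 min at 37 °C, then solubilised with 0.8% NP40 and benzonase, followed by ultracentrifugation. Proteins were quantified by TMT10 LC-MS/MS; the value is the NP40-soluble abundance relative to the NP40-processed vehicle, from 3 independent experiments.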",
  "note": "± gives the standard deviation of the averaged measurements. This is one part of the list.",
  "data": [
    {"target": "UniProt Q9Y6A4", "values": [
      {"measurement": "NP40-soluble protein abundance", "setting": "concentration: 0.1mM", "value": "1.09 ± 0.027"},
      {"measurement": "NP40-soluble protein abundance", "setting": "concentration: 0.5mM", "value": "1.04 ± 0.076"},
      {"measurement": "NP40-soluble protein abundance", "setting": "concentration: 1mM", "value": "0.962 ± 0.024"},
      {"measurement": "NP40-soluble protein abundance", "setting": "concentration: 2mM", "value": "0.968 ± 0.1"},
      {"measurement": "NP40-soluble protein abundance", "setting": "concentration: 4mM", "value": "1.01 ± 0.05"},
      {"measurement": "NP40-soluble protein abundance", "setting": "concentration: 6mM", "value": "0.964 ± 0.087"},
      {"measurement": "NP40-soluble protein abundance", "setting": "concentration: 8mM", "value": "1.01 ± 0.05"},
      {"measurement": "NP40-soluble protein abundance", "setting": "concentration: 10mM", "value": "0.957 ± 0.11"}
    ]},
    {"target": "TELO2 (UniProt Q9Y4R8)", "values": [
      {"measurement": "NP40-soluble protein abundance", "setting": "concentration: 0.1mM", "value": "1.02 ± 0.014"},
      {"measurement": "NP40-soluble protein abundance", "setting": "concentration: 0.5mM", "value": "1.03 ± 0.085"},
      {"measurement": "NP40-soluble protein abundance", "setting": "concentration: 1mM", "value": "0.999 ± 0.041"},
      {"measurement": "NP40-soluble protein abundance", "setting": "concentration: 2mM", "value": "1.03 ± 0.073"},
      {"measurement": "NP40-soluble protein abundance", "setting": "concentration: 4mM", "value": "0.981 ± 0.055"},
      {"measurement": "NP40-soluble protein abundance", "setting": "concentration: 6mM", "value": "0.975 ± 0.11"},
      {"measurement": "NP40-soluble protein abundance", "setting": "concentration: 8mM", "value": "0.941 ± 0.031"},
      {"measurement": "NP40-soluble protein abundance", "setting": "concentration: 10mM", "value": "0.91 ± 0.048"}
    ]},
    {"target": "HEBP2 (UniProt Q9Y5Z4)", "values": [
      {"measurement": "NP40-soluble protein abundance", "setting": "concentration: 0.1mM", "value": "0.851 ± 0.12"},
      {"measurement": "NP40-soluble protein abundance", "setting": "concentration: 0.5mM", "value": "0.856 ± 0.12"},
      {"measurement": "NP40-soluble protein abundance", "setting": "concentration: 1mM", "value": "0.856 ± 0.095"},
      {"measurement": "NP40-soluble protein abundance", "setting": "concentration: 2mM", "value": "0.814 ± 0.11"},
      {"measurement": "NP40-soluble protein abundance", "setting": "concentration: 4mM", "value": "0.814 ± 0.12"},
      {"measurement": "NP40-soluble protein abundance", "setting": "concentration: 6mM", "value": "0.815 ± 0.085"},
      {"measurement": "NP40-soluble protein abundance", "setting": "concentration: 8mM", "value": "0.815 ± 0.13"},
      {"measurement": "NP40-soluble protein abundance", "setting": "concentration: 10mM", "value": "0.819 ± 0.12"}
    ]},
    {"target": "UniProt Q9Y3D0", "values": [
      {"measurement": "NP40-soluble protein abundance", "setting": "concentration: 0.1mM", "value": "0.836 ± 0.067"},
      {"measurement": "NP40-soluble protein abundance", "setting": "concentration: 0.5mM", "value": "0.869 ± 0.033"},
      {"measurement": "NP40-soluble protein abundance", "setting": "concentration: 1mM", "value": "1.02 ± 0.042"},
      {"measurement": "NP40-soluble protein abundance", "setting": "concentration: 2mM", "value": "1.04 ± 0.049"},
      {"measurement": "NP40-soluble protein abundance", "setting": "concentration: 4mM", "value": "0.987 ± 0.043"},
      {"measurement": "NP40-soluble protein abundance", "setting": "concentration: 6mM", "value": "1.04 ± 0.013"},
      {"measurement": "NP40-soluble protein abundance", "setting": "concentration: 8mM", "value": "1.04 ± 0.089"},
      {"measurement": "NP40-soluble protein abundance", "setting": "concentration: 10mM", "value": "1.09 ± 0.17"}
    ]},
    {"target": "UniProt Q9Y3L3 and related entries", "values": [
      {"measurement": "NP40-soluble protein abundance", "setting": "concentration: 0.1mM", "value": "0.998 ± 0.025"},
      {"measurement": "NP40-soluble protein abundance", "setting": "concentration: 0.5mM", "value": "1 ± 0.045"},
      {"measurement": "NP40-soluble protein abundance", "setting": "concentration: 1mM", "value": "0.994 ± 0.018"},
      {"measurement": "NP40-soluble protein abundance", "setting": "concentration: 2mM", "value": "0.988 ± 0.099"},
      {"measurement": "NP40-soluble protein abundance", "setting": "concentration: 4mM", "value": "0.981 ± 0.04"},
      {"measurement": "NP40-soluble protein abundance", "setting": "concentration: 6mM", "value": "0.991 ± 0.052"},
      {"measurement": "NP40-soluble protein abundance", "setting": "concentration: 8mM", "value": "0.958 ± 0.019"},
      {"measurement": "NP40-soluble protein abundance", "setting": "concentration: 10mM", "value": "1.01 ± 0.034"}
    ]}
  ]
}
